PubChem BioAssay AID493014 (National Center for Advancing Translational Sciences (NCATS), 2011)
Some of the results follow. Shown are side measurements of this screen, not its main read-out; they come without a call. Most of these compounds were active or inconclusive in the main read-out, so they are no random draw. Words in brackets tell the shape of the fitted curve; partial curves, single points and poor fits give uncertain potencies.

Assay: qHTS Assay to Find Inhibitors of Chronic Active B-Cell Receptor Signaling
Settings: ABC-DLBCL IkBa-CBG/CBR reporter, luminescence ratio (green luciferase fused to IkBa over red control in TMD8 lymphoma cells), 4 h
Outline: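 Compounds up to 46 uM were incubated four hours with TMD8 cells whose green CBG68 luciferase is fused to IkappaBalpha; red CBR luminescence normalised the signal, and concentration-effect curves were fitted to fusion, red and ratio data.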

[1] = measured here: CBR red luminescence, cell number
[2] = measured here: IkBa-CBG green luminescence

CSC(=NC#N)N1CCN(C(c2ccccc2)c2ccccc2)CC1
AC50 [1]: 35.5 µM [falling, single point]

CCc1ccccc1NCC(=O)Nc1ccccc1C(=O)OC
AC50 [1]: 2.31 µM [falling, full curve, poor fit]

COc1ccc(C2CC(=O)C=C(NCc3ccccc3)C2)cc1 (stereo not given)
AC50 [1]: 0.631 µM [falling, full curve, poor fit]

COc1ccc(CN2CCN(Cc3nc4ccccc4s3)CC2CCO)c(C)c1C (stereo not given)
AC50 [2]: 12.6 µM [falling, partial curve, poor fit]

O=C(NCCc1ccc(Cl)cc1)c1cccc(N2CCCC2=O)c1
AC50 [1]: 35.5 µM [falling, single point]

O=C(COC(=O)CCCSc1nc2ccccc2[nH]1)Nc1ccc(Cl)cc1
AC50 [1]: 29.1 µM [falling, single point]

Oc1c(Cl)cc(Cl)cc1CNc1ccc(Br)cn1
AC50 [1]: 18.4 µM [rising, partial curve, poor fit]

O=C(O)C1=CC[C@@H](c2ccc(Cl)cc2)N(S(=O)(=O)c2ccc(Cl)cc2)[C@H]1c1ccc(Br)cc1
AC50 [1]: 18.4 µM [falling, single point]

Cc1cc(C(=O)Nc2ccc(Cl)cc2)c(C)n1Cc1cccs1
AC50 [1]: 15.8 µM [falling, single point]

Cc1ccc(C2/C(=C(/O)c3ccc(OC(C)C)cc3)C(=O)C(=O)N2CCN2CCOCC2)cc1 (stereo not given)
AC50 [1]: 7.08 µM [falling, partial curve, poor fit]

COc1ccccc1-c1csc2ncnc(Sc3nnnn3C)c12
AC50 [1]: 32.6 µM [falling, partial curve, poor fit]

CSCCC(NS(=O)(=O)c1cccc(C(F)(F)F)c1)C(=O)Nc1ccccc1N1CCCC1 (stereo not given)
AC50 [1]: 20.6 µM [falling, single point]

COc1ccc(C(=O)/C=C/c2ccc(O)cc2)cc1
AC50 [1]: 20 µM [falling, single point]

C#CCOCCOCCOCCNc1nc(N2CCN(C(=O)CCCCCCCCCCNC(=O)[C@H](CO)n3cc(CCCSC)nn3)CC2)nc(N2CCN(C(=O)CCCCCCCCCCNC(=O)[C@H](CCCN=C(N)N)n3cc(C[C@@H](C)CC)nn3)CC2)n1
AC50 [1]: 16.4 µM [rising, partial curve] | AC50 [2]: 18.4 µM [falling, partial curve, poor fit]

O=C1N[C@H](Cc2ccccc2)COC(=O)[C@H](Cc2ccc(F)cc2)C/C=C\C[C@H]1CC(=O)N(CCO)Cc1ccccc1
AC50 [1]: 29.1 µM [falling, single point]

CCN(CC)c1ccc(NC(=O)c2ccccc2Br)cc1S(=O)(=O)Nc1ccccc1OC
AC50 [1]: 0.82 µM [rising, full curve, poor fit]

CN(NC(=S)Nc1ccc(OC(F)F)cc1)C(=S)Nc1ccc(OC(F)F)cc1
AC50 [1]: 32.6 µM [rising, single point]

CC(Sc1nnc(-c2ccc(O)cc2)o1)C(=O)Nc1cccc2ccccc12 (stereo not given)
AC50 [1]: 1.46 µM [falling, full curve] | AC50 [2]: 32.6 µM [rising, partial curve, poor fit]

CCOC(=O)[C@@H]1[C@H]2COc3ccc(Br)cc3[C@H]2N2C(=O)N(c3ccc(Br)cc3)C(=O)[C@]12C
AC50 [1]: 3.16 µM [falling, partial curve, poor fit]

O=C(O)c1ccccc1C(=O)NC1Cc2ccccc2C1
AC50 [1]: 31.6 µM [falling, single point]

COc1ccc2c(c1)CCc1c(C(=O)NCCc3ccc(OC)c(OC)c3)noc1-2
AC50 [2]: 13 µM [falling, partial curve, poor fit]

COC(=O)c1cc(OC)c(OC)cc1NC(=O)CC1CCCCC1
AC50 [1]: 20.6 µM [rising, single point]

COc1ccc(N2CCN(C(=O)C(Cc3ccccc3)n3cccc3)CC2)cc1 (stereo not given)
AC50 [1]: 6.51 µM [rising, single point]

Cc1ccc(-n2cc(CNC(C)c3cnn(C)c3C)c(-c3ccc(F)cc3)n2)cc1 (stereo not given)
AC50 [1]: 3.16 µM [rising, partial curve, poor fit]

COc1ccccc1C(=O)Nc1ccc2c(c1)CN(Cc1cnc(C)s1)CC2
AC50 [1]: 17.8 µM [falling, single point]

CCN(CC)CCOC(=O)c1cccc(OC)c1
AC50 [1]: 9.2 µM [rising, partial curve, poor fit]

O=C(NN=C(Cc1ccccc1)Cc1ccccc1)c1ccccc1O
AC50 [1]: 1.12 µM [falling, full curve]

O=C(N/N=C/C1CC=CCC1)c1ccc(Cl)cc1O (stereo not given)
AC50 [1]: 0.517 µM [falling, full curve]

O=C(NCCN1CCc2ccccc2C1)Nc1ccc([N+](=O)[O-])cc1
AC50 [1]: 10 µM [rising, single point]

O=C(COC(=O)c1cccc(S(=O)(=O)N2CCc3ccccc32)c1)NC1CCS(=O)(=O)C1 (stereo not given)
AC50 [1]: 5.17 µM [rising, full curve, poor fit]

Cc1ccc(-c2nn(-c3ccccc3)cc2/C=N/NC(=O)c2ccc(Br)o2)cc1
AC50 [1]: 10 µM [rising, partial curve, poor fit]

CC1(C)C2CCC1(C)C(OC(=O)c1ccc(O)cc1)C2 (stereo not given)
AC50 [1]: 35.5 µM [rising, single point]

Nc1ccc(C(=O)Nc2cccc(NC(=O)c3ccc(N)cc3)c2)cc1
AC50 [1]: 3.98 µM [falling, full curve, poor fit]

CC(C)OC(=O)CC12CN3CC(CC(=O)OC(C)C)(CN(C1)C(=O)c1ccccc1C3=O)C2=O
AC50 [1]: 35.5 µM [rising, single point]

O=[N+]([O-])c1ccc2c(c1)Nc1nc3ccccc3nc1N2
AC50 [1]: 10 µM [rising, partial curve, poor fit]

COc1cccc(N/C(N)=N/c2nc(C(F)(F)F)cc(C(F)(F)F)n2)c1
AC50 [1]: 7.08 µM [falling, partial curve] | AC50 [2]: 14.1 µM [rising, partial curve, poor fit]

CCOC(=O)c1ccccc1NC(=O)Cn1c(-c2nonc2N)nc2ccccc21
AC50 [1]: 10 µM [rising, partial curve, poor fit] | AC50 [2]: 12.6 µM [falling, partial curve]

CCOc1ccc(C(=O)CC(C(=O)O)N2CCN(Cc3ccccc3)CC2)cc1 (stereo not given)
AC50 [1]: 29.1 µM [falling, single point]

O=C(c1ccccc1)c1ccc2c(c1)OCCOCCOCCO2
AC50 [1]: 11.2 µM [falling, single point]

O=C(/C=C/c1ccco1)NCCc1ccccc1
AC50 [1]: 7.94 µM [falling, partial curve]

O=C(CSc1nc2ccccc2c(=O)[nH]1)Nc1ccccc1O
AC50 [1]: 35.5 µM [falling, single point]

CCN(CC)c1ccc(NC(=O)c2cnn(CC)c2)cc1
AC50 [1]: 1.78 µM [rising, partial curve, poor fit]

CCc1nc(CN2CCCC(C(=O)c3ccc4c5c(cccc35)CC4)C2)c(C)[nH]1 (stereo not given)
AC50 [1]: 0.398 µM [falling, full curve, poor fit]

O=C(O)COc1ccc(-c2nccc(-c3ccccn3)n2)cc1
AC50 [1]: 17.8 µM [falling, single point]

Cc1cccc(-c2noc(CCC(=O)NC3CCCC3)n2)c1
AC50 [1]: 7.94 µM [rising, partial curve, poor fit]

Cc1cc(C)c(NC(=O)c2cccc3c2C(=O)N(C2CCCCC2)C3)c(C)c1
AC50 [1]: 31.6 µM [rising, partial curve, poor fit]

CCOc1c(Cl)cc(C(=O)Nc2cccc(C(=O)O)c2)cc1Cl
AC50 [1]: 35.5 µM [falling, single point]

COc1cc(/C=C(\C#N)c2nc3ccc(C)cc3[nH]2)cc([N+](=O)[O-])c1O
AC50 [2]: 35.5 µM [rising, partial curve, poor fit]

N#Cc1c(=O)c2nc(NCc3ccccc3)ncc2n2ccccc12
AC50 [1]: 5.8 µM [falling, full curve, poor fit]

N#CC1=C(N)Oc2c(ccc3cccnc23)C1c1ccncc1 (stereo not given)
AC50 [1]: 35.5 µM [falling, single point]

CSc1nc(-c2ccc(Cl)cc2)c(C#N)c(=O)[nH]1
AC50 [1]: 31.6 µM [rising, single point]

CCOc1cc(Br)cc(/C=C2\SC(=Nc3ccccc3)NC2=O)c1O
AC50 [1]: 3.55 µM [falling, full curve, poor fit]

O=C(O)CCc1ccc(-c2ccccc2)n1-c1cccc(O)c1
AC50 [1]: 2.59 µM [rising, full curve, poor fit]

Cc1ccc(N2CCN(C(=O)N3CCCC3)CC2)cc1C
AC50 [1]: 7.31 µM [falling, single point]

O=C(COC(=O)c1cc(-c2ccc(F)cc2)nc2ccccc12)NCC1CCCO1 (stereo not given)
AC50 [1]: 0.501 µM [falling, full curve, poor fit]

Cc1cc(C)cc(NC(=O)CN2C(=O)c3ccccc3Sc3ccc(C(=O)N4CCOCC4)cc32)c1
AC50 [1]: 12.6 µM [falling, partial curve]

Cc1ccc2nc(N/N=C/c3ccco3)cc(C)c2c1
AC50 [1]: 5.62 µM [rising, single point]

C=CCc1ccccc1OCC(O)CN1CCN(c2ccc(C)cc2)CC1 (stereo not given)
AC50 [1]: 12.6 µM [rising, single point]

CCNC(=O)COc1ccc(-c2ccccc2)cc1
AC50 [1]: 3.66 µM [rising, full curve, poor fit]

CCc1ccc2[nH]c(C(=O)Nc3ccc4c(c3)OCO4)cc2c1
AC50 [1]: 17.8 µM [falling, single point]

Oc1[nH]c(=S)sc1C=C1N=c2ccccc2=N1
AC50 [1]: 17.8 µM [falling, single point]
